The supplement of paper PMC10689618
The other results are listed elsewhere or left out. Single values are uncertain, as repeats are few or missing.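 Labelled rat cortical synaptosomes were engulfed by primary human fetal astrocytes. Engulfment equaled a red/green ratio, corrected for calcein live-cell signal and normalized to the plate median. Compounds were toxic when calcein dropped over 30%, and reduced phagocytosis when below 70% of the median above 5 µM.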

Legend:
Human fetal astrocytes [1] = experiment: loss of total cells relative to no-compound high-control median (toxicity); higher = more toxic (fewer cells); conditions: 24 h
Human fetal astrocytes [2] = experiment: synaptosome phagocytosis (pHrodo/calcein intensity ratio) relative to plate median of data wells; higher = more phagocytosis; conditions: 24 h

Compound | loss of total cells (Human fetal astrocytes [1]; 1.39 µM) | loss of total cells (Human fetal astrocytes [1]; 2.78 µM) | loss of total cells (Human fetal astrocytes [1]; 5.56 µM) | loss of total cells (Human fetal astrocytes [1]; 11.11 µM) | loss of total cells (Human fetal astrocytes [1]; 22.22 µM) | synaptosome phagocytosis (Human fetal astrocytes [2]; 1.39 µM) | synaptosome phagocytosis (Human fetal astrocytes [2]; 2.78 µM) | synaptosome phagocytosis (Human fetal astrocytes [2]; 5.56 µM) | synaptosome phagocytosis (Human fetal astrocytes [2]; 11.11 µM) | synaptosome phagocytosis (Human fetal astrocytes [2]; 22.22 µM)
CC[C@H]1OC(=O)[C@H](C)[C@@H](O[C@H]2C[C@@](C)(OC)[C@@H](O)[C@H](C)O2)[C@H](C)[C@@H](O[C@@H]2O[C@H](C)C[C@H](N(C)C)[C@H]2O)[C@](C)(O)C[C@@H](C)C(=O)[C@H](C)[C@@H](O)[C@]1(C)O | -26.6% | -20.4% | 2.1% | -14.1% | 5.1% | 98.3% | 96.5% | 117% | 84.4% | 114%
CC(=O)Nc1ccc(O)cc1 | -20.7% | -9.5% | 0.3% | -7% | 12.5% | 80.8% | 113% | 99.8% | 116% | 112%
CC1(C)[C@@H](OC(=O)CCC(=O)O)CC[C@]2(C)[C@H]3C(=O)C=C4[C@@H]5C[C@@](C)(C(=O)O)CC[C@]5(C)CC[C@@]4(C)[C@]3(C)CC[C@@H]12 | -19.1% | 1.5% | 17.7% | 10.2% | -2.8% | 95.3% | 95.5% | 107% | 120% | 101%
Cc1c(C)c2c(c(C)c1O)CCC(C)(CCCC(C)CCCC(C)CCCC(C)C)O2 (stereo not drawn) [alpha-TOCHOPHEROL] | -17.4% | 8.8% | -6.9% | -26.6% | 14.2% | 89.3% | 90.9% | 99.1% | 116% | 133%
COc1cc(/C=C/C(=O)N2CCC=CC2=O)cc(OC)c1OC | 19.9% | 32.1% | 32.6% | 36.4% | 36.4% | 92% | 82.7% | 52% | 48.6% | 33.6%
Cn1c(=O)[nH]c(=O)c2[nH]cnc21 | -13.9% | -9.7% | -5.1% | 8.8% | 15.6% | 116% | 81.1% | 104% | 110% | 105%
CCCCC(=O)O[C@]1(C(=O)CO)[C@@H](C)C[C@H]2[C@@H]3CCC4=CC(=O)C=C[C@]4(C)[C@@]3(F)[C@@H](O)C[C@@]21C | -11.6% | -16.8% | -8.1% | -10.9% | -30% | 103% | 110% | 79.1% | 98.5% | 105%
COc1cc(OC)c2c(=O)c(-c3ccc4c(c3)OCO4)coc2c1 | -6.6% | -12.6% | -1.5% | -6.1% | 9.6% | 116% | 78.7% | 95.1% | 110% | 79.9%
CC1=CC(=O)C(C(C)C)=CC1=O | -17.2% | -1.8% | 16.1% | 18.9% | -4.4% | 92.2% | 90.4% | 111% | 128% | 98.9%
